Where a chain is given by its changes, count along the chain named. These are yes or no findings as the source states them, for the method shown. For some of these results: Binding can be weak; no strength is given. For some of these results: Tags and fused reporters may be left off the sequences shown. For some of these results: Binding seen in cells or lysates may run through a third protein.
Tests used:
[1] = biological target: T1, ATG8A (purified) (Arabidopsis thaliana) (UniProt Q8LEM4); assay: NMR titration; unlabeled protein or peptide (50-300 μM) added to 100 μM 15N-labeled protein; 1H-15N HSQC, 25°C, 50 mM sodium phosphate pH 7.0, 100 mM NaCl, 10% D2O; both purified
T1 sequence: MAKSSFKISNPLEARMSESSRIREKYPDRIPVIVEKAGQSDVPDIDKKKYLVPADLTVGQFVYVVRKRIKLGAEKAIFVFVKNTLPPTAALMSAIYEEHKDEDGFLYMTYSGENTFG

The chains behind the UniProt entries cited, without tags or fusion partners. Where a name states a change or a piece, a line headed by the entry shows the natural chain unless it says otherwise.
UniProt Q9FG23: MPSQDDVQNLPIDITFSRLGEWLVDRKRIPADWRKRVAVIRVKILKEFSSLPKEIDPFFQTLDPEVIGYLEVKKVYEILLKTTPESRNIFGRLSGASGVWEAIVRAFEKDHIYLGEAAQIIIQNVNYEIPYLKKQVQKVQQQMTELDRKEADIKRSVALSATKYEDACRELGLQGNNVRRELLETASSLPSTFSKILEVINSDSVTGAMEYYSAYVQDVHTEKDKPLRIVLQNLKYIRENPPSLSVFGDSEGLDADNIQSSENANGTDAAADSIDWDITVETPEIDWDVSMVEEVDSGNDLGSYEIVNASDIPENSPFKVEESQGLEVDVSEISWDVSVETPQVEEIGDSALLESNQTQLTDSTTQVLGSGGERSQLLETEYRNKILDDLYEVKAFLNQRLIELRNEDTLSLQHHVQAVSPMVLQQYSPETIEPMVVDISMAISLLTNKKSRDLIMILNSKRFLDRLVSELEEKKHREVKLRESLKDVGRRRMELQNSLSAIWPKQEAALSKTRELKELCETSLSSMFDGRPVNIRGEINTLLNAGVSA

[2] = biological target: T1, ATG8A (purified) (Arabidopsis thaliana); assay: NMR titration; both purified
[3] = biological target: T2, GST-ATG8A (Arabidopsis thaliana) (UniProt Q8LEM4); assay: pull-down; GST-tagged bait on glutathione magnetic agarose beads; E. coli lysates containing the recombinant proteins mixed, 1 h at 4°C; wash buffer 100 mM sodium phosphate pH 7.2, 300 mM NaCl, 1 mM DTT, 0.01% IGEPAL; immunoblot with anti-GST and anti-MBP
T2 sequence: T1 sequence

[4] = biological target: T2, GST-ATG8A (Arabidopsis thaliana); assay: pull-down; as a1, with the cAIM peptide added as competitor (200 μM final in Fig 3B)
[5] = biological target: T3, GST-ATG8A^LDS (YL50AA) (Arabidopsis thaliana) (UniProt Q8LEM4); assay: pull-down; GST-tagged bait on glutathione magnetic agarose beads; E. coli lysates containing the recombinant proteins mixed, 1 h at 4°C; wash buffer 100 mM sodium phosphate pH 7.2, 300 mM NaCl, 1 mM DTT, 0.01% IGEPAL; immunoblot with anti-GST and anti-MBP
T3 sequence: T1 sequence with Y50A, L51A

[6] = biological target: T2, GST-ATG8A (Arabidopsis thaliana); assay: microscopy-based on-bead protein-protein interaction assay; both purified

AtC53 IDR (264-341) (from UniProt Q9FG23) (domain or fragment)
binding [1]: binds

AtC53 IDR^W276A (264-341) (from UniProt Q9FG23) (domain or fragment)
binding [2]: binds

C53 homolog from Phytophthora sojae (Ps)
binding [3]: binds

MBP-AtC53 (from UniProt Q9FG23)
binding [4]: binds
binding [5]: no binding
binding [3]: binds

mCh-AtC53 (from UniProt Q9FG23)
binding [6]: binds
